These are yes or no findings as the source states them, for the method shown. Some results given as binding are weak or reduced against the parent protein; the word gives no strength.
Experiments:
[1] = molecular target: Aß1-42 preparations consisting predominantly of higher oligomers (Oli) (UniProt P05067); assay: ELISA, ABP coated on the plate, Aß1-42 preparation in solution, bound Aß detected with 6E10 or 4G8
[2] = molecular target: Aß1-42 preparations consisting predominantly of higher oligomers (Oli) (UniProt P05067); assay: ELISA, ABP coated on the plate, Aß in solution, 6E10 or 4G8 detection

By UniProt entry, the sequences of proteins in these tests, tags left out. Residues count along the entry.
UniProt P05067, residues 672-713: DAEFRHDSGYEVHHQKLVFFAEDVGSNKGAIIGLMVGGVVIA

- binding [1]: binds
- binding [2]: binds
B1: free ABP (synthetic) (peptide)
peptide: KTFKTRKASAQASLASKDKTPKSKSKKRNSTQLKSRVKNI
